At least one structure is not confirmed: it was looked up by name or label, or the drawing left a doubt.
Columns and labels:
Format in all cases: cell-based
VEGF receptor Flk-1 = assay: FACS analysis of Flk-1 expression in choroidal endothelial cells
Method: (§1) To show the capacity of a mineralocorticoid, specifically fludrocortisone, to down-regulate receptors involved in biochemical pathways associated with oedema and exudative retinopathies, an assay was conducted looking at the activity of VEGF receptors Flk-1 and Flt-1 in choroidal endothelial cells. Flk-1 is known to be involved in cell proliferation whilst Flt-1 is involved in cell permeability.
(§2) The expression of Flk-1 and Flt-1 was measured, using fluorescence activated cell sorting (FACS) analysis, in untreated cells, cells treated with phorbolmyristate acetate (PMA), cells treated with PMA and then with the glucocorticoid triamcinolone acetonide (TA) and cells treated with PMA and then with the mineralocorticoid fludrocortisone. PMA is a model for pro-inflammatory cytokines and TA is known to […] the glucocorticoid receptor
(§3) The expression of Flk-1 and Flt-1 was also investigated in untreated choroidal endothelial cells, choroidal endothelial cells treated with Tumour Necrosis Factor-α (TNF-α) and choroidal endothelial cells treated with the mineralocorticoid fludrocortisone. TNF-α is a pro-inflammatory cytokine.

VEGF receptor Flt-1 = assay: FACS analysis of Flt-1 expression in choroidal endothelial cells; details: Example 2, FIG. 2, compared to untreated control cells
Method: as §1, §2, §3

[1] = test system: choroidal endothelial cells; assay: Transendothelial electrical resistance (TER) of choroidal endothelial cells; details: Example 3, FIG. 3, compared to cells treated with DMSO
[2] = test system: retinal endothelial cells; assay: Transendothelial electrical resistance (TER) of retinal endothelial cells; details: Example 4, FIG. 4, DMSO-treated cells exhibit low resistance

For `C[C@]12CCC(=O)C=C1CC[C@H]1[C@@H]3CC[C@](O)(C(=O)CO)[C@@]3(C)C[C@H](O)[C@@]12F` [fludrocortisone, 11β-9α-fluoro-11β,17α,21-trihydroxy-4-pregene-3,20-dione], the “expression of Flk-1” value (VEGF receptor Flk-1; Example 1, FIG. 1, choroidal endothelial cells treated with PMA and then with compound, compared to control (untreated) cells) was “reduced expression of Flk-1”, the “expression of FLK-1” value (VEGF receptor Flk-1; Example 2, FIG. 2, choroidal endothelial cells, compared to untreated cells) was “down-regulated” and the “expression of Flt-1” value (VEGF receptor Flt-1) was “slightly reduced”. For the same compound, the “transendothelial electrical resistance (TER)” value [1] was “increased resistance” and the “transendothelial electrical resistance (TER)” value [2] was “higher resistance than those treated with TA”.

From patent publication US20050245497A1, “Treatment of ophthalmic conditions” (priority 2004, published 2005)
